Melanoma cell counts after drug treatment

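Human melanoma cell lines in 1,536-well plates were treated with a pair of drugs for 72 h, then fixed, stained and imaged. The read-out is cell count (nuclei) in % of the DMSO control; lower values mean stronger growth inhibition or killing. Every drug was used at one fixed concentration, the lower of two screened (a fifth of the higher). These are primary screening values without error estimates.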 An unselected part of the screen is shown.

Drugs:
PF-562271: CN(c1ncccc1CNc1nc(Nc2ccc3c(c2)CC(=O)N3)ncc1C(F)(F)F)S(C)(=O)=O at 80 nM
erlotinib: C#Cc1cccc(Nc2ncnc3cc(OCCOC)c(OCCOC)cc23)c1 at 800 nM
CX-4945: O=C(O)c1ccc2c(c1)nc(Nc1cccc(Cl)c1)c1ccncc12 at 400 nM
dovitinib: CN1CCN(c2ccc3nc(-c4c(N)c5c(F)cccc5[nH]c4=O)[nH]c3c2)CC1 at 100 nM
indole-3-carbinol: OCc1c[nH]c2ccccc12 at 800 nM
tozasertib: Cc1cc(Nc2cc(N3CCN(C)CC3)nc(Sc3ccc(NC(=O)C4CC4)cc3)n2)n[nH]1 at 6 nM
fingolimod: CCCCCCCCc1ccc(CCC(N)(CO)CO)cc1 at 2000 nM
sorafenib: CNC(=O)c1cc(Oc2ccc(NC(=O)Nc3ccc(Cl)c(C(F)(F)F)c3)cc2)ccn1 at 400 nM
stibogluconate: O=C(O)[C@@H]1[O][Sb](=[O])([O][Sb]2(=[O])[O][C@H]([C@H](O)CO)[C@H](O)[C@H](C(=O)O)[O]2)[O][C@H]([C@H](O)CO)[C@@H]1O (some centres unmarked) at 2000 nM
everolimus: CO[C@H]1C[C@@H]2CC[C@@H](C)[C@@](O)(O2)C(=O)C(=O)N2CCCC[C@H]2C(=O)O[C@H]([C@H](C)C[C@@H]2CC[C@@H](OCCO)[C@H](OC)C2)CC(=O)[C@H](C)/C=C(\C)[C@@H](O)[C@@H](OC)C(=O)[C@H](C)C[C@H](C)/C=C/C=C/C=C/1C at 20 nM

| Pair | IPC-298 | MEL-HO | A2058 | COLO 792 | COLO 829 | G-361 | C32 |
|---|---|---|---|---|---|---|---|
| tozasertib + indole-3-carbinol | 100 | 98.9 | 102 | 84.5 | 95.0 | 124 | 91.7 |
| dovitinib + sorafenib | 87.8 | 94.5 | 88.2 | 119 | 81.2 | 105 | 105 |
| everolimus + indole-3-carbinol | 76.7 | 71.7 | 71.1 | 60.0 | 101 | 60.6 | 95.3 |
| tozasertib + sorafenib | 78.3 | 97.3 | 91.1 | 106 | 98.5 | 82.6 | 91.7 |
| fingolimod + indole-3-carbinol | 94.0 | 88.4 | 70.0 | 93.8 | 88.2 | 87.4 | 97.6 |
| sorafenib + CX-4945 | 94.7 | 90.4 | 87.4 | 114 | 77.5 | 95.3 | 80.0 |
| stibogluconate + fingolimod | 90.5 | 120 | 106 | 99.1 | 109 | 95.6 | 133 |
| PF-562271 + dovitinib | 97.1 | 92.9 | 80.6 | 84.3 | 75.7 | 79.1 | 82.1 |
| PF-562271 + tozasertib | 105 | 85.1 | 71.8 | 82.0 | 64.4 | 89.4 | 96.1 |
| indole-3-carbinol + stibogluconate | 95.2 | 87.8 | 93.5 | 99.9 | 108 | 87.6 | 98.6 |
| stibogluconate + PF-562271 | 97.1 | 100 | 90.7 | 88.5 | 92.2 | 101 | 101 |
| sorafenib + PF-562271 | 90.9 | 79.5 | 66.5 | 80.6 | 45.1 | 98.1 | 68.6 |
| fingolimod + everolimus | 73.2 | 59.7 | 56.9 | 52.3 | 56.0 | 57.4 | 81.1 |
| fingolimod + sorafenib | 95.2 | 91.7 | 93.8 | 100 | 87.0 | 85.9 | 95.3 |
| dovitinib + CX-4945 | 90.2 | 76.0 | 88.5 | 89.5 | 91.6 | 82.5 | 91.0 |
| tozasertib + dovitinib | 94.2 | 92.5 | 84.3 | 94.3 | 66.7 | 78.4 | 96.9 |
| erlotinib + CX-4945 | 82.8 | 78.2 | 94.1 | 62.7 | 90.7 | 77.3 | 99.5 |
| CX-4945 + PF-562271 | 94.9 | 93.4 | 81.8 | 75.5 | 61.5 | 72.5 | 77.0 |
| dovitinib + everolimus | 69.1 | 63.6 | 62.6 | 49.2 | 69.3 | 57.1 | 72.4 |
| indole-3-carbinol + PF-562271 | 97.1 | 93.5 | 81.1 | 80.8 | 54.3 | 86.0 | 81.6 |
| PF-562271 + erlotinib | 91.3 | 88.9 | 75.2 | 69.7 | 70.1 | 85.7 | 93.1 |
| erlotinib + stibogluconate | 103 | 106 | 106 | 91.1 | 108 | 88.4 | 118 |
| indole-3-carbinol + CX-4945 | 93.2 | 89.5 | 95.0 | 83.0 | 92.6 | 83.4 | 91.7 |
| erlotinib + everolimus | 67.7 | 69.3 | 70.8 | 47.7 | 74.5 | 66.8 | 90.8 |
| dovitinib + erlotinib | 101 | 98.0 | 74.8 | 91.4 | 95.2 | 90.0 | 110 |
| everolimus + CX-4945 | 62.6 | 57.9 | 76.1 | 44.3 | 64.2 | 58.8 | 84.3 |
| tozasertib + erlotinib | 90.0 | 109 | 107 | 105 | 102 | 89.0 | 87.5 |
| everolimus + sorafenib | 60.8 | 74.3 | 60.8 | 68.0 | 78.2 | 63.6 | 81.7 |
| stibogluconate + sorafenib | 87.0 | 97.1 | 105 | 100 | 111 | 93.0 | 107 |
| CX-4945 + stibogluconate | 96.3 | 88.8 | 96.6 | 74.2 | 84.9 | 117 | 95.2 |
| tozasertib + everolimus | 77.4 | 69.1 | 58.6 | 60.7 | 69.1 | 63.3 | 79.0 |
| stibogluconate + everolimus | 80.4 | 72.1 | 68.1 | 68.8 | 79.2 | 79.8 | 70.1 |
| erlotinib + fingolimod | 87.9 | 79.9 | 88.6 | 84.5 | 90.8 | 89.5 | 106 |
| everolimus + PF-562271 | 70.0 | 73.5 | 59.0 | 52.1 | 47.4 | 65.7 | 84.3 |
| sorafenib + indole-3-carbinol | 87.4 | 90.9 | 99.4 | 109 | 104 | 95.7 | 97.9 |
| CX-4945 + tozasertib | 91.5 | 88.8 | 95.6 | 95.2 | 98.2 | 97.1 | 97.8 |
| fingolimod + dovitinib | 92.6 | 90.6 | 81.8 | 97.4 | 92.8 | 87.6 | 95.7 |
| tozasertib + fingolimod | 86.9 | 94.9 | 84.2 | 111 | 114 | 91.1 | 92.9 |

3 of the entries, repeated:

| Pair | IPC-298 | MEL-HO | A2058 | COLO 792 | COLO 829 | G-361 | C32 |
|---|---|---|---|---|---|---|---|
| stibogluconate + sorafenib | 87.0 | 97.1 | 105 | 100 | 111 | 93.0 | 107 |
| tozasertib + fingolimod | 86.9 | 94.9 | 84.2 | 111 | 114 | 91.1 | 92.9 |
| stibogluconate + PF-562271 | 97.1 | 100 | 90.7 | 88.5 | 92.2 | 101 | 101 |

From a melanoma drug combination screen (doi:10.1371/journal.pone.0140310); values rounded.